Data reported in the supplement of paper PMC7661543.
The effect of the compound repeats well; differences between the knockouts mostly do not.

Test system: BT-20
Experiment: relative cell number vs DMSO control (72 h) (% of DMSO); higher = less growth inhibition (more cells)
Protocol: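 QMAP-Seq: a pool of 5 breast cancer cell lines (ZR-75-1, SKBR3, HCC-38, MDA-MB-231, BT-20), each carrying 12 doxycycline-inducible Cas9 sgRNA perturbations (11 knockouts plus non-targeting sgNT), was treated with compounds for 72 h at four 10-fold doses (10 nM-10 uM or 1 nM-1 uM range). Barcodes were amplified and sequenced, and cell number was interpolated from 293T spike-in standard curves. The result is expressed as % of the median of DMSO wells. Two biological replicates.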

CC[C@@]1(O)C(=O)OCc2c1cc1n(c2=O)Cc2cc3c(CN(C)C)c(O)ccc3nc2-1 [Topotecan]
Settings	relative cell number
sgRNA knockout: sgATF3, 10 nM	63.8
sgRNA knockout: sgATF3, 100 nM	60.6
sgRNA knockout: sgATF3, 1000 nM	24.4
sgRNA knockout: sgATF3, 10000 nM	11.4
sgRNA knockout: sgATF4, 10 nM	84
sgRNA knockout: sgATF4, 100 nM	57.2
sgRNA knockout: sgATF4, 1000 nM	26.7
sgRNA knockout: sgATF4, 10000 nM	14.5
sgRNA knockout: sgATF6, 10 nM	87.4
sgRNA knockout: sgATF6, 100 nM	61.5
sgRNA knockout: sgATF6, 1000 nM	28.1
sgRNA knockout: sgATF6, 10000 nM	8.74
sgRNA knockout: sgATG7, 10 nM	93.4
sgRNA knockout: sgATG7, 100 nM	55.5
sgRNA knockout: sgATG7, 1000 nM	25.7
sgRNA knockout: sgATG7, 10000 nM	13
sgRNA knockout: sgERN1, 10 nM	80.8
sgRNA knockout: sgERN1, 100 nM	52.8
sgRNA knockout: sgERN1, 1000 nM	23.6
sgRNA knockout: sgERN1, 10000 nM	14.3
sgRNA knockout: sgHSF1, 10 nM	84.4
sgRNA knockout: sgHSF1, 100 nM	60
sgRNA knockout: sgHSF1, 1000 nM	28.4
sgRNA knockout: sgHSF1, 10000 nM	11.9
sgRNA knockout: sgHSF2, 10 nM	87.2
sgRNA knockout: sgHSF2, 100 nM	53.7
sgRNA knockout: sgHSF2, 1000 nM	36.8
sgRNA knockout: sgHSF2, 10000 nM	12.3
sgRNA knockout: sgKEAP1, 10 nM	89
sgRNA knockout: sgKEAP1, 100 nM	50.8
sgRNA knockout: sgKEAP1, 1000 nM	29.6
sgRNA knockout: sgKEAP1, 10000 nM	10.8
sgRNA knockout: sgNFE2L2, 10 nM	69.3
sgRNA knockout: sgNFE2L2, 100 nM	64.2
sgRNA knockout: sgNFE2L2, 1000 nM	27.7
sgRNA knockout: sgNFE2L2, 10000 nM	14.6
sgRNA knockout: sgSLC35F2, 10 nM	88.9
sgRNA knockout: sgSLC35F2, 100 nM	53.3
sgRNA knockout: sgSLC35F2, 1000 nM	24.1
sgRNA knockout: sgSLC35F2, 10000 nM	15.7
sgRNA knockout: sgXBP1, 10 nM	85.2
sgRNA knockout: sgXBP1, 100 nM	50.6
sgRNA knockout: sgXBP1, 1000 nM	27.5
sgRNA knockout: sgXBP1, 10000 nM	13.6

O=C(c1cc(Cc2n[nH]c(=O)c3ccccc23)ccc1F)N1CCN(C(=O)C2CC2)CC1 [Olaparib]
Settings	relative cell number
sgRNA knockout: sgATF3, 10 nM	89.7
sgRNA knockout: sgATF3, 100 nM	94.7
sgRNA knockout: sgATF3, 1000 nM	83.6
sgRNA knockout: sgATF3, 10000 nM	73.3
sgRNA knockout: sgATF4, 10 nM	89.2
sgRNA knockout: sgATF4, 100 nM	101
sgRNA knockout: sgATF4, 1000 nM	83.5
sgRNA knockout: sgATF4, 10000 nM	78
sgRNA knockout: sgATF6, 10 nM	91.16
sgRNA knockout: sgATF6, 100 nM	111
sgRNA knockout: sgATF6, 1000 nM	83.2
sgRNA knockout: sgATF6, 10000 nM	88
sgRNA knockout: sgATG7, 10 nM	86.96
sgRNA knockout: sgATG7, 100 nM	106
sgRNA knockout: sgATG7, 1000 nM	83
sgRNA knockout: sgATG7, 10000 nM	86.4
sgRNA knockout: sgERN1, 10 nM	94.8
sgRNA knockout: sgERN1, 100 nM	105
sgRNA knockout: sgERN1, 1000 nM	71.9
sgRNA knockout: sgERN1, 10000 nM	76.3
sgRNA knockout: sgHSF1, 10 nM	99.4
sgRNA knockout: sgHSF1, 100 nM	86.4
sgRNA knockout: sgHSF1, 1000 nM	85.92
sgRNA knockout: sgHSF1, 10000 nM	91.5
sgRNA knockout: sgHSF2, 10 nM	98.6
sgRNA knockout: sgHSF2, 100 nM	111
sgRNA knockout: sgHSF2, 1000 nM	86
sgRNA knockout: sgHSF2, 10000 nM	97
sgRNA knockout: sgKEAP1, 10 nM	87.8
sgRNA knockout: sgKEAP1, 100 nM	96.1
sgRNA knockout: sgKEAP1, 1000 nM	82.2
sgRNA knockout: sgKEAP1, 10000 nM	79.1
sgRNA knockout: sgNFE2L2, 10 nM	103
sgRNA knockout: sgNFE2L2, 100 nM	109
sgRNA knockout: sgNFE2L2, 1000 nM	98.7
sgRNA knockout: sgNFE2L2, 10000 nM	88.3
sgRNA knockout: sgSLC35F2, 10 nM	93.1
sgRNA knockout: sgSLC35F2, 100 nM	99.4
sgRNA knockout: sgSLC35F2, 1000 nM	76.5
sgRNA knockout: sgSLC35F2, 10000 nM	94.9
sgRNA knockout: sgXBP1, 10 nM	96.34
sgRNA knockout: sgXBP1, 100 nM	100
sgRNA knockout: sgXBP1, 1000 nM	91.3
sgRNA knockout: sgXBP1, 10000 nM	77.3

O=C1c2c(O)ccc(O)c2C(=O)c2c(NCCNCCO)ccc(NCCNCCO)c21 [Mitoxantrone]
Settings	relative cell number
sgRNA knockout: sgATF3, 10 nM	65.6
sgRNA knockout: sgATF3, 100 nM	40.1
sgRNA knockout: sgATF3, 1000 nM	31.8
sgRNA knockout: sgATF3, 10000 nM	8.75
sgRNA knockout: sgATF4, 10 nM	71.9
sgRNA knockout: sgATF4, 100 nM	36.3
sgRNA knockout: sgATF4, 1000 nM	30.56
sgRNA knockout: sgATF4, 10000 nM	9.55
sgRNA knockout: sgATF6, 10 nM	62.6
sgRNA knockout: sgATF6, 100 nM	36.2
sgRNA knockout: sgATF6, 1000 nM	26
sgRNA knockout: sgATF6, 10000 nM	8.04
sgRNA knockout: sgATG7, 10 nM	75.4
sgRNA knockout: sgATG7, 100 nM	45.6
sgRNA knockout: sgATG7, 1000 nM	25.1
sgRNA knockout: sgATG7, 10000 nM	7.58
sgRNA knockout: sgERN1, 10 nM	69
sgRNA knockout: sgERN1, 100 nM	43.7
sgRNA knockout: sgERN1, 1000 nM	25.6
sgRNA knockout: sgERN1, 10000 nM	7.22
sgRNA knockout: sgHSF1, 10 nM	70.2
sgRNA knockout: sgHSF1, 100 nM	46.2
sgRNA knockout: sgHSF1, 1000 nM	23.6
sgRNA knockout: sgHSF1, 10000 nM	9.06
sgRNA knockout: sgHSF2, 10 nM	79.2
sgRNA knockout: sgHSF2, 100 nM	35.1
sgRNA knockout: sgHSF2, 1000 nM	25.9
sgRNA knockout: sgHSF2, 10000 nM	8.19
sgRNA knockout: sgKEAP1, 10 nM	75.9
sgRNA knockout: sgKEAP1, 100 nM	37.2
sgRNA knockout: sgKEAP1, 1000 nM	28.7
sgRNA knockout: sgKEAP1, 10000 nM	8.29
sgRNA knockout: sgNFE2L2, 10 nM	56.8
sgRNA knockout: sgNFE2L2, 100 nM	33.4
sgRNA knockout: sgNFE2L2, 1000 nM	23.5
sgRNA knockout: sgNFE2L2, 10000 nM	6.8
sgRNA knockout: sgSLC35F2, 10 nM	78.5
sgRNA knockout: sgSLC35F2, 100 nM	39
sgRNA knockout: sgSLC35F2, 1000 nM	26.9
sgRNA knockout: sgSLC35F2, 10000 nM	6.45
sgRNA knockout: sgXBP1, 10 nM	60.2
sgRNA knockout: sgXBP1, 100 nM	38.7
sgRNA knockout: sgXBP1, 1000 nM	31.2
sgRNA knockout: sgXBP1, 10000 nM	8.93
